## Primary screen of a compound library

Measurements from “University of Dundee, Small-Polar-MMV Screening Library” (2021), ChEMBL document CHEMBL3988442.

Values are the deposited “Percent Effect”, in %. The record does not define 0% and 100%; most values in the screen are far below 50% and negative numbers occur (in some assays of this library far below -100). The compounds are a random part of those screened. Two or more numbers in one place are separate tests of the same structure; such repeats can differ widely.

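Viability assay of Plasmodium falciparum sporozoites; the read-out is not stated. The concentration is filed as 10 mM, unlikely as a test dose, so the dose is not known. Direction is inferred from retests: higher values go with lower viability. Strong results were mostly tested again. Size under these conditions: about 34,000 compounds, about 280 of them at 50% or above in at least one test.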

compound | Percent Effect
Cc1nc(C2CCCN2C(=O)CCn2cncn2)no1 (centres unmarked) | 2.625%
Cl.Clc1ccccc1CN1CCc2nc(C3CCCCN3)ncc2C1 (centres unmarked) | -22.72%
O=C(O)C(F)(F)F.[H][C@]12CCN(CC(C)C)CC[C@@]1([H])S(=O)(=O)CCN2S(C)(=O)=O | 0.1805%
Cc1nc(C)n(CC2CN(Cc3cccnc3)CCO2)n1 (centres unmarked) | -0.0815%
Cc1cc(C)c(CNC(=O)NC2CCN(C(=O)C(C)C)CC2)c(C)c1 | 4.772%
Cc1noc(C)c1CC(=O)OCC(=O)N1CCc2sccc2C1 | -0.9804%
Cc1cnc(C(=O)N2CCCCC2c2ccc(CN(C)C)cc2)cn1 (centres unmarked) | -1.874%
O=C(C1CCC1)N1CCC2(CC1)OCCO2 | 16.12%
O=C(NCc1ccccn1)NCc1ccc(Cl)s1 | -5.604%
CCCN1CCc2nc(SCc3ccc(F)cc3)[nH]c(=O)c2C1 | -5.103%
COc1ccc(CNC(=O)CCN2C[C@@H](C)[C@](O)(C3CC3)C2)cc1 | 10.7%
NC(=O)CCN1CCC(C(=O)c2cc(F)ccc2F)CC1 | -7.103%
COCCN(C)C(=O)Nc1cc2c(cc1SC)OCCO2 | -20.76% & -19.13%
CNS(=O)(=O)c1cccc(CNc2ncccn2)c1 | 9.272%
Cc1ccc(C2CN(C(=O)c3c(C)cc(C)[nH]c3=O)CCO2)c(C)c1 (centres unmarked) | -2.664%
CCc1nnc2n1CC(CNCc1nnc(C(C)(C)C)o1)CC2 (centres unmarked) | 0.6519%
CC(C)NC(=O)CNC(=O)N1CCc2c([nH]c3ccc(Cl)cc23)C1 | -18.9% & -19.04%
Cc1nonc1CN(C)CC1(O)CCCN(CCC2CCCCC2)C1=O (centres unmarked) | 3.433%
COc1c(C2CCCN2CC(=O)Nc2cc(C)no2)c(C)nn1C (centres unmarked) | -3.425%
Br.CCOc1ccc(Br)cc1C1CCCN1 (centres unmarked) | 0.2725%
CC(C)c1nccn1CCCNC(=O)c1ccc(-c2ccncc2)nc1 | 1.775%
CCc1n[nH]c(C2CN(C(=O)c3cc(C(N)=O)cs3)CCO2)n1 (centres unmarked) | -2.07%
O=C1COc2c(cccc2C(=O)N2CCCC2Cn2cccn2)N1 (centres unmarked) | -2.23%
COC(=O)CN1Cc2cc3c(cc2NCCC1=O)OCO3 | 9.856%
CC(c1ccc(S(N)(=O)=O)cc1)N(C)C(=O)c1ccccc1I (centres unmarked) | 16.32%
CCCN(CCOC)c1nc(C)nc2sccc12 | -7.238% & -4.495%
Cc1ccc(C(=O)NCCNS(C)(=O)=O)c(=O)[nH]1 | -1.538%
CNC(=O)C1CN(C(=O)c2ccncc2)CCN(S(C)(=O)=O)C1 (centres unmarked) | 10.51%
CCC(C)(C)n1nnnc1C(c1cccs1)N1CCc2ccccc2C1 (centres unmarked) | -8.434%
CC(C)N(C)Cc1cnc2n1CCN(C(=O)Cc1ccccn1)C2.O=C(O)C(F)(F)F.O=C(O)C(F)(F)F | 11.55%
O=C(c1ccncc1F)N1CCc2ncnc(N3CCOCC3)c2CC1 | 1.816% & 20.54% & -13.14%
O=C(O)C(F)(F)F.[H][C@@]12CN(CC(C)C)C[C@]1([H])C(=O)N(C)C21CCN(C(=O)C(C)C)CC1 | 25.49%
Cc1cc(C)c2cc(CNCc3ccco3)c3nn(C)c(=O)n3c2c1 | -1.532%
COc1ccccc1CN1CCC(c2nn(CCN)c3nccnc23)C1 (centres unmarked) | 8.402%
Cc1ccccc1C(N)c1ccncc1.Cl (centres unmarked) | -6.151%
CC(C)c1cc(C(=O)N[C@@H]2CC[C@@H](Oc3ccccc3)[C@@H]2O)on1 | -1.347%
Cc1c(NC(=O)NCC(C)N2CCOCC2)cccc1OC(F)F (centres unmarked) | -7.441%
CCn1nc(C)c(NC(=O)c2cc(NC(=O)C(C)C)n(C)n2)c1C | -1.088%
Cc1ccc(C)c(OC2CCN(C(=O)c3ccc(O)nc3)CC2)c1 | 7.09%
CC(C)COCC(NC(=O)c1ccccn1)c1ccco1 (centres unmarked) | 4.16%
Cc1ccc(OCC(=O)N(C)Cc2cccc(F)c2)cn1 | 9.371%
O=C(O)C(F)(F)F.O=C(O)C(F)(F)F.O=C(O)C(F)(F)F.[H][C@@]12CCN(Cc3nccn3C)C[C@]1([H])[C@@H](CNc1ncccn1)OC2 | 8.938%
CC(C)c1ncncc1C(=O)N1CCCN(Cc2ccccc2)CC1 | -15.89%
CC(=O)N1CCCN(C(=O)c2cnn(C(C)(C)C)c2C)CC1 | 9.717%
Cc1ccc(N2CCN(C(=O)COc3nccc(C)n3)CC2)nn1 | -6.494%
CCOCC(O)CN1CCN(C(=O)c2cccc3[nH]ncc23)CC1 (centres unmarked) | -6.709%
Cc1cc(C(=O)N2CCn3cc(CN4CCCCC4)nc3C2)no1 | 11.77%
CC(C)COCCC(=O)NCc1cn2cc(Br)ccc2n1 | -2.696%
CCOCCCNC(=O)c1nn(CC)cc1Cl | 1.974%
CNC(=O)[C@@H]1CN(C(=O)COC)C[C@H]1c1ccnc(N2CCCC2)n1 | 10.34%
Cc1n[nH]c(C)c1NC(=O)c1cccc(OCC(F)(F)F)n1 | 2.176%
CCn1cnnc1CNC(=O)N1CCC(OCc2ccccc2)CC1 | 10.71%
CNC(=O)CN(C)C(=O)c1cc(Cl)c(I)cc1OC | -7.539%
CCS(=O)(=O)Nc1ccn(Cc2cccc(Cl)c2)n1 | 8.724%
CCOc1cc(CNC(=O)N2CCC(Cc3cnn(C)c3)C2)ccn1 (centres unmarked) | 9.179%
COCCC(=O)N1CCN(CCN(C)C)c2ncccc2C1 | -12.65%
O=C(NC[C@]1(O)CCN(Cc2ccccc2F)C[C@H]1O)c1c[nH]cn1 | 5.707%
Cn1cnc2c1CCN(Cc1csc(-c3ccc(F)cc3)n1)C2 | -9.047% & 9.476% & -2.391%
Cn1ccc(CN2CC(Cc3nccc4cc[nH]c34)C2)n1 | 4.262%
O=C(c1ccccn1)N1CCC(c2nc(O)cc(-c3ccncc3)n2)C1 (centres unmarked) | -2.094%
COCc1nc(C(=O)N2CCCCC2Cn2cccn2)cs1 (centres unmarked) | -9.372%
NC(=O)CSc1nccc(-c2ccc3c(c2)OCO3)n1 | 2.201%
CC1CN(Cc2ccccc2)CCCN1CCS(C)(=O)=O (centres unmarked) | -7.88%
Cl.c1nc(CCC2CCCN2)cc(N2CCCOCC2)n1 (centres unmarked) | 6.517%
CN1CCCN(C(=O)NCCNc2cnccn2)CC1 | -10.21%
N#Cc1cn(C2CC2)c(=O)n(CC(O)c2ccccc2F)c1=O (centres unmarked) | 9.728%
O=C(CCc1ccccc1)N1CCn2cc(Cn3cncn3)nc2C1 | -10.39%
Cc1ncc2c(n1)CN(CC(=O)Nc1ccncc1)CC2 | 5.623%
CN(C)C1CCCN(C(=O)NCc2ccccc2-n2cccn2)C1 (centres unmarked) | 13.41%
COCC(O)CN1CC(C)(C)CN(C(=O)CCc2ccccc2)CC1=O (centres unmarked) | -30.79%
CCC(=O)N1CCCC1c1csc(Nc2cnccn2)n1 (centres unmarked) | 11.38%
CC(C)N1CCC(c2n[nH]cc2S(C)(=O)=O)CC1 | 1.279%
CCC(=O)N1CCCN(C(=O)C2SCCc3sccc32)CC1 (centres unmarked) | -15.48%
[H][C@@]12CN(S(=O)(=O)c3ccccc3F)C[C@@]1([H])OCC(=O)N2 | 0.7705%
Cc1nnc2n1CCN(CCS(=O)(=O)c1ccc(Cl)cc1)C2 | 0.7721%
Cc1cccnc1NC(=O)NCc1ccc(N2CCNC(=O)C2)cc1 | -4.742%
Cc1nc(CN(C)C2CCN(Cc3ccc(C(N)=O)cc3)C2)no1 (centres unmarked) | 12.01%
CSCC[C@H](N)C(=O)NCc1cc2n(n1)CCCN(C1CCCCC1)C2 | -12.32%

Once more, the final 6:

- CCC(=O)N1CCCN(C(=O)C2SCCc3sccc32)CC1 (centres unmarked) | -15.48%
- [H][C@@]12CN(S(=O)(=O)c3ccccc3F)C[C@@]1([H])OCC(=O)N2 | 0.7705%
- Cc1nnc2n1CCN(CCS(=O)(=O)c1ccc(Cl)cc1)C2 | 0.7721%
- Cc1cccnc1NC(=O)NCc1ccc(N2CCNC(=O)C2)cc1 | -4.742%
- Cc1nc(CN(C)C2CCN(Cc3ccc(C(N)=O)cc3)C2)no1 (centres unmarked) | 12.01%
- CSCC[C@H](N)C(=O)NCc1cc2n(n1)CCCN(C1CCCCC1)C2 | -12.32%